For two substances, binding results are on record in paper PMC4426689.

Sequences of proteins named here, by UniProt entry; tags and fusion partners are left off. Residues count along the entry.
UniProt Q16665: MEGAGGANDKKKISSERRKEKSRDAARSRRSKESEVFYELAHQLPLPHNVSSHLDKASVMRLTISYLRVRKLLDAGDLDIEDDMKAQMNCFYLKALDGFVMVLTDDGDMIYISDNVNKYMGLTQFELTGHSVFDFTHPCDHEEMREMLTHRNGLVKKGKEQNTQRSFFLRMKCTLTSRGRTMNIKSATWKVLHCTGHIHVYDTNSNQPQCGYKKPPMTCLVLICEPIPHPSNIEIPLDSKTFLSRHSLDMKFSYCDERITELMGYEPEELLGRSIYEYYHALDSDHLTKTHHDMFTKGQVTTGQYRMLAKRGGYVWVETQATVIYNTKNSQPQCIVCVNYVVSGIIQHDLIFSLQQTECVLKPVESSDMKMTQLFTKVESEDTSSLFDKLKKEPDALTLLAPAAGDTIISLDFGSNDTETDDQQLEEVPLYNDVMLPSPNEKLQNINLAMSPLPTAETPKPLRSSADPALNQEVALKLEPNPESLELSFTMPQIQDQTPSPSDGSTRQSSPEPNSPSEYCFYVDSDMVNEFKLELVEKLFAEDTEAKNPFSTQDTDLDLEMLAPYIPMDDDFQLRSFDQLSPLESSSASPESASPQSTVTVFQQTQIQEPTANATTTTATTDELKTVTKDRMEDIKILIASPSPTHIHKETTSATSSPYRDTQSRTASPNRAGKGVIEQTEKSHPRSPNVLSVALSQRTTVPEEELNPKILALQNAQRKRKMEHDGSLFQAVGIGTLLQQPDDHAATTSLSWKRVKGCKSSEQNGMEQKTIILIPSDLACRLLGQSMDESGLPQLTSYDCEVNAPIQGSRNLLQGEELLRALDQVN
UniProt P13473, residues 29-410: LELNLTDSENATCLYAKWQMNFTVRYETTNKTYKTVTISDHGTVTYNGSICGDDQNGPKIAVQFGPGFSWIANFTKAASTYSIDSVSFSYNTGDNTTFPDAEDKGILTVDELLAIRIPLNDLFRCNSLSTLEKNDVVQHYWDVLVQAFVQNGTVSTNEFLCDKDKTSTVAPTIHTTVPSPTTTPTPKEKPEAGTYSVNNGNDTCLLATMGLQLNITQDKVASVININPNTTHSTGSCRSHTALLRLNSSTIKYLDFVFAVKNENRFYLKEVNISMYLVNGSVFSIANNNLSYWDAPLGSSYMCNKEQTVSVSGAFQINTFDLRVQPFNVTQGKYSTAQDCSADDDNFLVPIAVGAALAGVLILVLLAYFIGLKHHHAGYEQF
UniProt P11142: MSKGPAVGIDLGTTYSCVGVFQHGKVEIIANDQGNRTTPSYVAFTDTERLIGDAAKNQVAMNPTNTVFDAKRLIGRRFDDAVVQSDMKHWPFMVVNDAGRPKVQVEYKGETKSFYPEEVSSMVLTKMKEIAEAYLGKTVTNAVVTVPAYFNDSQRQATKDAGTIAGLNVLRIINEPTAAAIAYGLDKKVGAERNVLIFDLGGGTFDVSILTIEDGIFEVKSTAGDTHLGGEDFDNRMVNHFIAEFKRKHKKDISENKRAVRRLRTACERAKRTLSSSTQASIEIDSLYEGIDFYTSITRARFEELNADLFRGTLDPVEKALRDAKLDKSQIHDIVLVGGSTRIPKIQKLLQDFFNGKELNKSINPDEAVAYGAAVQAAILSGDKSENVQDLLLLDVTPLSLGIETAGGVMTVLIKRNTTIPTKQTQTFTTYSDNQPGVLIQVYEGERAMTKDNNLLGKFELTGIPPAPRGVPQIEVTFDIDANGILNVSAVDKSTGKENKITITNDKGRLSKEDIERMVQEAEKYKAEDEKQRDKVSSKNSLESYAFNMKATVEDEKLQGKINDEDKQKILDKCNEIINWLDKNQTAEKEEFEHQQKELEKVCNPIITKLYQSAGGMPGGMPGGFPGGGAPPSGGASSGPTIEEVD

Assay [1] concerns the target hypoxia inducible factor 1, α subunit (basic helix-loop-helix transcription factor) (human (endogenous in HeLa)) (UniProt Q16665). Description: co-IP; native conditions (lysis buffer 50 mM TRIS-HCl pH 7.4, 150 mM NaCl, 0.5% NP-40; washes 0.15% NP-40), 2 ug antibody overnight at 4 °C, protein G-Sepharose; HeLa cells transfected with HA-ubiquitin (wild type or mutants), with or without serum, 300 uM CoCl2, 25 nM BafA, 6 h; endogenous proteins, blot.

The target of assay [2] is lysosomal-associated membrane protein 2A (human (endogenous in HeLa)) (UniProt P13473). Described as above.
In assay [3] the target is HSC70 (heat shock 70 kDa protein 8) (human (endogenous in HeLa)) (UniProt P11142). The assay is described as above.
For assay [4], the target named is lysosomal-associated membrane protein 2A (human (endogenous in HeLa)) (UniProt P13473). Description: condition: only in cells overexpressing ubiquitin mutants that impair K63 chain formation (K48, K63R); co-IP; as a1, native conditions, in HeLa cells overexpressing HA-ubiquitin mutants that impair K63 chain formation (K48, K63R).

These are yes or no findings as the source states them, for the method shown. Binding seen in cells or lysates may run through a third protein. Some results given as binding are weak or reduced against the parent protein; the word gives no strength.

Take “HSC70 (heat shock 70 kDa protein 8) (from UniProt P11142 1-646)”: the binding result in assay [1] is reported as “binds”.
Turning to “hypoxia inducible factor 1, α subunit (basic helix-loop-helix transcription factor) (from UniProt Q16665 1-826)”, the binding result was “binds” in assay [2], “binds” in assay [3] and “no binding” in assay [4].
